PubChem BioAssay AID602196 | INSERM | 2012

Aim: 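Genes whose knock-down alters cisplatin killing of lung cancer cells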
Cell system: human A549 lung cancer cells
Reagent: siRNA pair against human genes
Duration: 48 h transfection before cisplatin; time from cisplatin to read-out not stated
Conditions: cisplatin at a dose killing half of control-siRNA cells; exact dose and duration not given
Measurement: 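Cisplatin cell death as a shift from the 50% death seen with control siRNA; siRNAs toxic or growth-blocking alone scored 0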
Scale: two-siRNA summed score (-2 to +2): higher = both siRNAs protect from cisplatin killing; -2 means both sensitise; mean protection from cisplatin (shift in death) and protection from cisplatin (shift in death), siRNA C and protection from cisplatin (shift in death), siRNA D: higher = protection from cisplatin killing
Active means: 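siRNAs harmful alone (LDH or WST-1) get 0; others get +1 for less and -1 for more cisplatin killing; genes are active when the two siRNAs give the same sign, summing to ±2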
Calls: active = both siRNAs shift cisplatin killing the same way; inactive = no consistent shift, or siRNA harmful alone
In all, the deposit lists about 23,000 reagents; below is a part drawn at random. 455 of them (2%) were called active. 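Active includes both protection and sensitisation; some change values fall well beyond the stated -50 to +50 range.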 Unmarked entries are inactive. No sequences are given here. Not given: the amount of reagent.

| gene knocked down | two-siRNA summed score (-2 to +2) | mean protection from cisplatin (shift in death) (%) | protection from cisplatin (shift in death), siRNA C (%) | protection from cisplatin (shift in death), siRNA D (%) |
| --- | --- | --- | --- | --- |
| OGFOD3 | 1 | 14.9 | 21.5 | 8.3 |
| CT47A11 | 1 | 5.5 | -7.3 | 18.3 |
| DOCK3 | 0 | -6 | -9.2 | -2.9 |
| LOC389089 | 0 | 4.7 | 14.2 | -4.8 |
| LOC390192 | 0 | 4.4 | 8.7 | 0.2 |
| LOC440464 | 0 | -5.5 | -0.1 | -10.8 |
| LOC442480 | -1 | -9.9 | -6.4 | -13.3 |
| LOC390683 | 1 | 12.4 | 12.8 | 12.1 |
| DHDDS | 1 | 22.4 | 8.9 | 35.9 |
| TASOR2 | 0 | 6.3 | 11.1 | 1.5 |

Next part (3 carried over from the part before).
| gene knocked down | two-siRNA summed score (-2 to +2) | mean protection from cisplatin (shift in death) (%) | protection from cisplatin (shift in death), siRNA C (%) | protection from cisplatin (shift in death), siRNA D (%) |
| --- | --- | --- | --- | --- |
| LOC390683 | 1 | 12.4 | 12.8 | 12.1 |
| DHDDS | 1 | 22.4 | 8.9 | 35.9 |
| TASOR2 | 0 | 6.3 | 11.1 | 1.5 |
| CWC27 | 1 | 12.9 | 3.9 | 22 |
| NT5C1A | -1 | -8.3 | 3.3 | -19.9 |
| RNH1 | 1 | 12.3 | 18.4 | 6.3 |
| KLHDC3 | 0 | 3.1 | 1.7 | 4.6 |
| LOC130678 | 0 | 7.6 | 10.3 | 4.9 |
| BNIP5 | 0 | 6.8 | 2.7 | 10.9 |
| LOC388586 | 1 | 15.8 | 0.8 | 30.8 |
| PAGE1 | 0 | 4.6 | 8.1 | 1.1 |
| RPL39L | 1 | 9.8 | 13.7 | 6 |
| CNTLN | -1 | -14.3 | -11.7 | -16.9 |
| KIAA0984 | 0 | -2.1 | 5.6 | -9.8 |
| LINC00161 | 1 | 5.2 | -10.3 | 20.7 |
| LINC01591 | 0 | 14.2 | 7 | 21.3 |
